Measurements from article PMC5209732.
These are yes or no findings as the source states them, for the method shown. Binding seen in cells or lysates may run through a third protein. Some results given as binding are weak or reduced against the parent protein; the word gives no strength. Tags and fused reporters may be left off the sequences shown.

Chains of the proteins cited; added tags and fusions are not shown.
UniProt P62136: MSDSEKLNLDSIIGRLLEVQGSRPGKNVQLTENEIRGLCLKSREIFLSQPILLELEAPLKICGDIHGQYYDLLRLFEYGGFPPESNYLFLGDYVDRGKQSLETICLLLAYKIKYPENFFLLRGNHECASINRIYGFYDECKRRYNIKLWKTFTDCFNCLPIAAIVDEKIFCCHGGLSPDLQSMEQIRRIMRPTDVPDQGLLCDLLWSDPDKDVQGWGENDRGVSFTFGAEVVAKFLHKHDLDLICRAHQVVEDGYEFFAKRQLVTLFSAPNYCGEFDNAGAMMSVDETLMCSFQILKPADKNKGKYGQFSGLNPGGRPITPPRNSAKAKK

T1: Myc-tagged PDCD5 (programmed cell death 5) (UniProt O14737)
T1 sequence: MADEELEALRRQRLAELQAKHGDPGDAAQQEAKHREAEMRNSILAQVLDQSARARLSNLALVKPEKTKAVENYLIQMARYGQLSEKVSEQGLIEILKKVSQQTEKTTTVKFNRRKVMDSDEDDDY

T2: PDCD5 of the GST pull-down (UniProt O14737)
T2 sequence: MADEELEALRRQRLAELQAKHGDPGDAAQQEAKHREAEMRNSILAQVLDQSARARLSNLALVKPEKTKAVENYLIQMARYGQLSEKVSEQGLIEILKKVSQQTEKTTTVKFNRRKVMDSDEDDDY

T3: Flag-tagged PPEF-1 (protein phosphatase with EF-hand domain 1) (UniProt O14829)
T3 sequence: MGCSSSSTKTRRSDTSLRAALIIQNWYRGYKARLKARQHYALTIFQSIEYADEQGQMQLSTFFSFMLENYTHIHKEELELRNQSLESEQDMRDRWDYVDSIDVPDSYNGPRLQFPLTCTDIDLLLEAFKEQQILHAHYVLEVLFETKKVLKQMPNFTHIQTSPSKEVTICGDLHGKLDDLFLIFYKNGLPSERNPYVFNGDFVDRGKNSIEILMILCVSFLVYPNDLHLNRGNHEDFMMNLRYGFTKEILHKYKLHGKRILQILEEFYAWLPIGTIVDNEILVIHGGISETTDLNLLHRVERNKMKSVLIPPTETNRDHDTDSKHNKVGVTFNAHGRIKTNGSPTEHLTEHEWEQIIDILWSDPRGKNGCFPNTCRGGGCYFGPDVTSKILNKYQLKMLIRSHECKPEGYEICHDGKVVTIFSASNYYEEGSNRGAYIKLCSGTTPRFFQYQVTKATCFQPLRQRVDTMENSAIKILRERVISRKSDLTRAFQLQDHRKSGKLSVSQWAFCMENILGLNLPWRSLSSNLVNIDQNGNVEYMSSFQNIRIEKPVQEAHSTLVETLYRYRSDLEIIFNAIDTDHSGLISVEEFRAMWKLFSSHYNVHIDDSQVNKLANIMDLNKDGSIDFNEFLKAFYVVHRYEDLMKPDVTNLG


Experiments:
[1] = molecular target: T1, Myc-tagged PDCD5 (programmed cell death 5); assay: co-IP; Myc-PDCD5 and Flag-tagged phosphatases co-transfected into HCT116 (p53+/+); whole-cell lysates (50 mM Tris-Cl pH 7.5, 150 mM NaCl, 1% NP40) immunoprecipitated with anti-Myc and protein A/G agarose overnight at 4 °C, immunoblotted
[2] = molecular target: T2, PDCD5 of the GST pull-down; assay: pull-down; GST pull-down with Myc-tagged PPEF-1 constructs; bound proteins eluted and analysed by autoradiography; only the target purified
[3] = molecular target: T3, Flag-tagged PPEF-1 (protein phosphatase with EF-hand domain 1); assay: co-IP; Myc-PDCD5 constructs and Flag-PPEF-1 co-transfected into HCT116 (p53+/+); lysates immunoprecipitated with Flag antibodies, immunoblotted

| Molecule | binding [1] | other results |
| --- | --- | --- |
| Flag-tagged PPP1CA (from UniProt P62136 1-330) (enzyme) | binds |  |
| Flag-tagged PPP6C (enzyme, UniProt O00743 1-305) MAPLDLDKYVEIARLCKYLPENDLKRLCDYVCDLLLEESNVQPVSTPVTVCGDIHGQFYDLCELFRTGGQVPDTNYIFMGDFVDRGYYSLETFTYLLALKAKWPDRITLLRGNHESRQITQVYGFYDECQTKYGNANAWRYCTKVFDMLTVAALIDEQILCVHGGLSPDIKTLDQIRTIERNQEIPHKGAFCDLVWSDPEDVDTWAISPRGAGWLFGAKVTNEFVHINNLKLICRAHQLVHEGYKFMFDEKLVTVWSAPNYCYRCGNIASIMVFKDVNTREPKLFRAVPDSERVIPPRTTTPYFL | binds |  |
| Flag-tagged PPEF-1 (protein phosphatase with EF-hand domain 1) (enzyme, UniProt O14829 1-653) MGCSSSSTKTRRSDTSLRAALIIQNWYRGYKARLKARQHYALTIFQSIEYADEQGQMQLSTFFSFMLENYTHIHKEELELRNQSLESEQDMRDRWDYVDSIDVPDSYNGPRLQFPLTCTDIDLLLEAFKEQQILHAHYVLEVLFETKKVLKQMPNFTHIQTSPSKEVTICGDLHGKLDDLFLIFYKNGLPSERNPYVFNGDFVDRGKNSIEILMILCVSFLVYPNDLHLNRGNHEDFMMNLRYGFTKEILHKYKLHGKRILQILEEFYAWLPIGTIVDNEILVIHGGISETTDLNLLHRVERNKMKSVLIPPTETNRDHDTDSKHNKVGVTFNAHGRIKTNGSPTEHLTEHEWEQIIDILWSDPRGKNGCFPNTCRGGGCYFGPDVTSKILNKYQLKMLIRSHECKPEGYEICHDGKVVTIFSASNYYEEGSNRGAYIKLCSGTTPRFFQYQVTKATCFQPLRQRVDTMENSAIKILRERVISRKSDLTRAFQLQDHRKSGKLSVSQWAFCMENILGLNLPWRSLSSNLVNIDQNGNVEYMSSFQNIRIEKPVQEAHSTLVETLYRYRSDLEIIFNAIDTDHSGLISVEEFRAMWKLFSSHYNVHIDDSQVNKLANIMDLNKDGSIDFNEFLKAFYVVHRYEDLMKPDVTNLG | binds |  |
| Myc-tagged PPEF-1 of the GST pull-down (enzyme, UniProt O14829 1-653) MGCSSSSTKTRRSDTSLRAALIIQNWYRGYKARLKARQHYALTIFQSIEYADEQGQMQLSTFFSFMLENYTHIHKEELELRNQSLESEQDMRDRWDYVDSIDVPDSYNGPRLQFPLTCTDIDLLLEAFKEQQILHAHYVLEVLFETKKVLKQMPNFTHIQTSPSKEVTICGDLHGKLDDLFLIFYKNGLPSERNPYVFNGDFVDRGKNSIEILMILCVSFLVYPNDLHLNRGNHEDFMMNLRYGFTKEILHKYKLHGKRILQILEEFYAWLPIGTIVDNEILVIHGGISETTDLNLLHRVERNKMKSVLIPPTETNRDHDTDSKHNKVGVTFNAHGRIKTNGSPTEHLTEHEWEQIIDILWSDPRGKNGCFPNTCRGGGCYFGPDVTSKILNKYQLKMLIRSHECKPEGYEICHDGKVVTIFSASNYYEEGSNRGAYIKLCSGTTPRFFQYQVTKATCFQPLRQRVDTMENSAIKILRERVISRKSDLTRAFQLQDHRKSGKLSVSQWAFCMENILGLNLPWRSLSSNLVNIDQNGNVEYMSSFQNIRIEKPVQEAHSTLVETLYRYRSDLEIIFNAIDTDHSGLISVEEFRAMWKLFSSHYNVHIDDSQVNKLANIMDLNKDGSIDFNEFLKAFYVVHRYEDLMKPDVTNLG |  | binding [2]: binds |
| Flag-tagged PPM1K (enzyme, UniProt Q8N3J5 30-372) DDRRVTPTCHSSTSEPRCSRFDPDGSGSPATWDNFGIWDNRIDEPILLPPSIKYGKPIPKISLENVGCASQIGKRKENEDRFDFAQLTDEVLYFAVYDGHGGPAAADFCHTHMEKCIMDLLPKEKNLETLLTLAFLEIDKAFSSHARLSADATLLTSGTTATVALLRDGIELVVASVGDSRAILCRKGKPMKLTIDHTPERKDEKERIKKCGGFVAWNSLGQPHVNGRLAMTRSIGDLDLKTSGVIAEPETKRIKLHHADDSFLVLTTDGINFMVNSQEICDFVNQCHDPNEAAHAVTEQAIQYGTEDNSTAVVVPFGAWGKYKNSEINFSFSRSFASSGRWA | binds |  |
| MADEELEALRRQRLAELQAKHGDPGDAAQQ (domain or fragment, UniProt O14737 1-30) [Myc-tagged PDCD5 N-terminal domain (residues 1-30)] |  | binding [3]: binds |
